Results on two compounds are retold here after patent US10933091B1, “Composition and method for the treatment of type I diabetes” (Vector Vitale IP LLC, priority 2019, dated 2021).

Data set [1] can be described thus: Intraperitoneal administration to intact rats: accumulation of metals in liver and kidney tissues. Particulars: day 1 and day 7 after discontinuation, in words.
Data set [2] in a line: Levels of divalent metal ions in muscles, kidneys and liver, diet-induced obesity study. Particulars: DIO rats (high-fat diet).

For `CC(=O)[O-].CC(=O)[O-].[Zn+2]` [Zn acetate, Zinc acetate, reference compound], the “manganese and copper in kidney and liver tissues” value in data set [1] was “within the same concentrations as in the control group”.
In the case of `N[C@@H](CC(=O)[O-])C(=O)[O-].[Zn+2]` [^64Zne, zinc aspartate], the “manganese and copper in kidney and liver tissues” value in data set [1] is “within the same concentrations as in the control group”. Also, the Copper level in data set [2] (kidneys) worked out at 4.94 ± 0.82 μg/ tissue; in data set [2] (liver) it was 3.93 ± 0.09 μg/ tissue; in data set [2] (muscles), 0.72 ± 0.15 μg/ tissue. Further, the Manganese level worked out at 0.64 ± 0.03 μg/ tissue in data set [2] (kidneys) and 1.94 ± 0.12 μg/ tissue in data set [2] (liver).
